Source: PMC10169810, “Ligand-induced activation and G protein coupling of prostaglandin F2α receptor” (Nature Communications, 2023)
“And” between values parts separate entries of the source, which are not always exact repeats. Identical values can stand only once.

Tested on: WT or mutants FP
Assay: Receptor cell-surface expression by flow cytometry
Format: cell-based, human
Settings: source data of Supplementary Fig. 5d; three individual replicate values per receptor construct; no ligand

| Substance | Receptor cell-surface expression of WT or mutant FP (Supplementary Fig. 5d) |
| --- | --- |
| Y92A | 88.79 and 116.96 and 120.70 |
| L290A | 101.13 and 82.86 and 104.85 |
| Q297A | 95.58 and 110.44 and 105.46 |
| N84A | 65.82 and 118.16 and 109.68 |
| S33A | 98.41 and 107.52 and 102.41 |
| T294A | 89.16 and 88.76 and 94.97 |
| N84T | 98.85 and 106.79 and 105.50 |
| F265A | 106.02 and 90.98 and 90.80 |
| F205A | 99.29 and 98.25 and 95.87 |
| R291A | 88.67 and 103.68 and 90.82 |
| WT | 93.36 and 105.29 and 101.35 |
| W185A | 106.04 and 90.97 and 102.99 |
| T294S | 94.82 and 97.77 and 92.26 |
| S118F | 116.00 and 106.83 and 96.29 |
| H81A | 99.15 and 107.28 and 64.39 |
| S118A | 122.03 and 115.33 and 104.09 |
| I298A | 104.12 and 129.25 and 130.36 |
| S118N | 119.98 and 116.97 and 59.11 |
| M115A | 103.38 and 90.45 and 114.39 |
| W262A | 102.54 and 96.76 and 88.97 |
| F187A | 130.86 and 102.97 and 92.45 |
